Results published in the supplement of paper PMC10735217.
The list shows a part of the results. Single values are uncertain here, since repeats match poorly.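 Human kidney-derived cells stably carry a construct in which eight TEAD-binding elements drive luciferase, measured by luminescence in a drug-repurposing library screen. A hit is any compound whose signal exceeds the plate mean by more than five robust Z scores.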

Test system: HEK293A TEAD-LUC reporter
Assay: TEAD-luciferase reporter activity (YAP activation), robust Z score vs plate; higher = stronger YAP/TEAD activation
Details: 24 h

SMILES	TEAD-luciferase reporter activity (compound concentration: 200 nM)	TEAD-luciferase reporter activity (compound concentration: 2 uM)	TEAD-luciferase reporter activity (compound concentration: 10 uM)
CNC(=O)N(N(CCCl)S(C)(=O)=O)S(C)(=O)=O [laromustine]	inactive: -0.788	inactive: -1.19	inactive: -1.16
CCC(NC(C)C)C(O)c1ccc(O)c2nc(O)ccc12 (stereo unspecified) [procaterol, Innovata]	inactive: -1.78		inactive: 1.34
CCC(NC(C)C)C(O)c1ccc(O)c2nc(O)ccc12 (stereo unspecified) [procaterol]		inactive: -0.844	
O=S1(=O)c2ccc(F)cc2Oc2cc(OCC(F)(F)F)ccc21	inactive: -0.803	inactive: 0.544	inactive: 2.59
CN(C)/C=N/c1cccc(O)n1	inactive: -0.345	inactive: -0.189	inactive: -1.45
CC(C)C[C@@H]1NC(=O)[C@H](CCCN)NC(=O)[C@H](C(C)C)NC(=O)[C@H](Cc2ccc(O)cc2)N[C@@H](CCC(=O)O)C(=O)N[C@@H](CC(N)=O)C(=O)[C@@H](Cc2ccccc2)NC(=O)[C@H](Cc2ccccc2)NC(=O)[C@@H]2CCCN2C(=O)[C@@H](Cc2ccccc2)NC1=O	inactive: -2.53	inactive: 0.206	inactive: 0.212
CC[N+](C)(CC)CCSC1=CC(c2ccc(Sc3ccccc3)cc2)=Nc2ccccc2N1 [Tibenzonium]	inactive: 1.11	inactive: -0.206	inactive: -0.907
CC1=C(/C=C/C(C)=C/C=C/C(C)=C/C(=O)Nc2ccc(O)cc2)C(C)(C)CCC1 [Retinoic acid p-hydroxyanilide]	inactive: -0.432		inactive: -1.29
CC1=C(/C=C/C(C)=C/C=C/C(C)=C/C(=O)Nc2ccc(O)cc2)C(C)(C)CCC1 [fenretinide]		inactive: -2.14	
Nc1c(C(=O)c2cccc(OCC(O)CO)c2)cnn1-c1ccc(F)cc1 (stereo unspecified)	inactive: -0.79	inactive: -1.41	inactive: -0.484
CC#CC(=O)Nc1cc2c(Nc3ccc(F)c(Cl)c3)ncnc2cn1	inactive: -2.66	inactive: -0.572	inactive: 0.705
Clc1ccc(Nc2c3ccccc3nc3ccccc23)cc1Cl	inactive: -0.868	inactive: -1.98	inactive: 0.437
OCCOc1ccc(C2CCCCC2)cc1	inactive: 0.101	inactive: 2.11	inactive: 0.879
Cc1cccc(-c2[nH]c(Cc3cccc(C(N)=O)c3)nc2-c2ccc3nccnc3c2)n1	inactive: 0.7	inactive: -0.728	inactive: 0.178

A second format for part of the listing above.
SMILES,TEAD-luciferase reporter activity (compound concentration: 200 nM),TEAD-luciferase reporter activity (compound concentration: 2 uM),TEAD-luciferase reporter activity (compound concentration: 10 uM)
CNC(=O)N(N(CCCl)S(C)(=O)=O)S(C)(=O)=O [laromustine],inactive: -0.788,inactive: -1.19,inactive: -1.16
"CCC(NC(C)C)C(O)c1ccc(O)c2nc(O)ccc12 (stereo unspecified) [procaterol, Innovata]",inactive: -1.78,,inactive: 1.34
CCC(NC(C)C)C(O)c1ccc(O)c2nc(O)ccc12 (stereo unspecified) [procaterol],,inactive: -0.844,
